Measurements published in patent publication US20100104579A1.
These are yes or no findings as the source states them, for the method shown. Some results given as binding are weak or reduced against the parent protein; the word gives no strength.

Biological target: human TREX1, wild type (recombinant, expressed in E. coli) (human) (UniProt Q9NSU2)
Experiment: recombinant expression in E. coli; homodimer purified by amylose affinity, protease cleavage and phosphocellulose chromatography

B1: human TREX1, wild type (recombinant, expressed in E. coli) (enzyme)
chain: MGSQALPPGPMQTLIFFDMEATGLPFSQPKVTELCLLAVHRCALESPPTSQGPPPTVPPPPRVVDKLSLCVAPGKACSPAASEITGLSTAVLAAHGRQCFDDNLANLLLAFLRRQPQPWCLVAHNGDRYDFPLLQAELAMLGLTSALDGAFCVDSITALKALERASSPSEHGPRKSYSLGSIYTRLYGQSPPDSHTAEGDVLALLSICQWRPQALLRWVDAHARPFGTIRPMYGVTASARTK
binding: binds
